# Measurements taken from paper PMC5996148.
# The chains behind the UniProt entries cited, without tags or fusion partners. Where a name states a change or a piece, a line headed by the entry shows the natural chain unless it says otherwise.
# UniProt Q15059: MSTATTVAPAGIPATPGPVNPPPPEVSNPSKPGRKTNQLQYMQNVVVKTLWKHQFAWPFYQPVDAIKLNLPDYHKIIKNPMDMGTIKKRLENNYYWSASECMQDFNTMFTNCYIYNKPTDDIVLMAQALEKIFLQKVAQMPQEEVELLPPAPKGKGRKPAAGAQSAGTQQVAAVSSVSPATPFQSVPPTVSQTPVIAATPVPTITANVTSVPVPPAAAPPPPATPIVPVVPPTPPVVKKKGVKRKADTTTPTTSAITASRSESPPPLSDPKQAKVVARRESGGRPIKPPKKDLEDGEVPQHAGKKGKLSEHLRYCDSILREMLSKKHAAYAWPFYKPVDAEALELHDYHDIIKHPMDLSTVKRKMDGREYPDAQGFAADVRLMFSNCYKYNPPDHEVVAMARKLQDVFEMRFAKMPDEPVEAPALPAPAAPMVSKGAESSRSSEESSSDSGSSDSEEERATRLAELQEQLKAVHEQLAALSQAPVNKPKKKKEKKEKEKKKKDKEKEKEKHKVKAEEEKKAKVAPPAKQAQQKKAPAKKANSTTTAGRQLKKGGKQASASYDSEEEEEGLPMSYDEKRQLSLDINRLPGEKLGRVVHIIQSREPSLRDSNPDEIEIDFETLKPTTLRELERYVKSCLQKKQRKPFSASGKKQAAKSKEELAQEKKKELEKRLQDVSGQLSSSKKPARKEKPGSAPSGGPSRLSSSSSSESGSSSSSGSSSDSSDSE
# “And” between values parts separate entries of the source, which are not always exact repeats. Equal entries are not always repeated. The list shows a part of the results. For some of these results: The source does not settle which construct or isoform was used.
# What was measured:
# Experiment in all cases: protein microarray (ProtoArray v5.0), streptavidin-Alexa Fluor 647
# Conditions in all cases: 3'-biotin; 20 mM Tris (pH 7.5), 5 mM MgCl2, 100 mM KCl, 0.1% Tween-20, A/T-rich and random oligonucleotide blockers; temperature not stated; high values mean tight binding
# BLOC1S2 (human) = tested on: BLOC1S2 (human)
# BLVRA (human) = tested on: BLVRA (human)
# BLVRB (human) = tested on: BLVRB (human)
# BMF (human) = tested on: BMF (human)
# BMPR1B (human) = tested on: BMPR1B (human)
# BMX (human) = tested on: BMX (human)
# BNIP1 (human) = tested on: BNIP1 (human)
# BNIP3L (human) = tested on: BNIP3L (human)
# BRD3 = BRD3 (UniProt Q15059)
# BRD9 (human) = tested on: BRD9 (human)
sequence,measurement,setting,value
GGGAGGCTGAGGCAGG [G4-1 biotinylated (PQS2)],binding signal,BLOC1S2 (human),-0.342 z-score
same,binding signal,BLVRA (human),-0.306 z-score
same,binding signal,BLVRB (human),-0.324 z-score
same,binding signal,BMF (human),-0.35 z-score and -0.361 z-score
same,binding signal,BMPR1B (human),-0.23 z-score
same,binding signal,BMX (human),-0.283 z-score
same,binding signal,BNIP1 (human),-0.3 z-score
same,binding signal,BNIP3L (human),-0.319 z-score
same,binding signal,BRD3,8.82 z-score
same,binding signal,BRD9 (human),-0.348 z-score
